The values that follow come from PMC9666630.

Protein sequences, listed by entry. Tags and fused reporters are not part of them.
UniProt O22467: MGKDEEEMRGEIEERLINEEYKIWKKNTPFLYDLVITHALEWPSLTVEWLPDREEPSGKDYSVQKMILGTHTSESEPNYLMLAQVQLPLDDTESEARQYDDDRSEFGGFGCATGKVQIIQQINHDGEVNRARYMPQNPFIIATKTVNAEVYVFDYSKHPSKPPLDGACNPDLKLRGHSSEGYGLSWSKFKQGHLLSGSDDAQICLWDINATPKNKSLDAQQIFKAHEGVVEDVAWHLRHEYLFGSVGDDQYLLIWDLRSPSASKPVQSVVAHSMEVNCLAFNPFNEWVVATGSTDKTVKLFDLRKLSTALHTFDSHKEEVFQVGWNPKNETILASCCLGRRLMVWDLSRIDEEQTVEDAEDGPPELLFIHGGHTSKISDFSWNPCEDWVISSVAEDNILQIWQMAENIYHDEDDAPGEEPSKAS
UniProt F4JV59: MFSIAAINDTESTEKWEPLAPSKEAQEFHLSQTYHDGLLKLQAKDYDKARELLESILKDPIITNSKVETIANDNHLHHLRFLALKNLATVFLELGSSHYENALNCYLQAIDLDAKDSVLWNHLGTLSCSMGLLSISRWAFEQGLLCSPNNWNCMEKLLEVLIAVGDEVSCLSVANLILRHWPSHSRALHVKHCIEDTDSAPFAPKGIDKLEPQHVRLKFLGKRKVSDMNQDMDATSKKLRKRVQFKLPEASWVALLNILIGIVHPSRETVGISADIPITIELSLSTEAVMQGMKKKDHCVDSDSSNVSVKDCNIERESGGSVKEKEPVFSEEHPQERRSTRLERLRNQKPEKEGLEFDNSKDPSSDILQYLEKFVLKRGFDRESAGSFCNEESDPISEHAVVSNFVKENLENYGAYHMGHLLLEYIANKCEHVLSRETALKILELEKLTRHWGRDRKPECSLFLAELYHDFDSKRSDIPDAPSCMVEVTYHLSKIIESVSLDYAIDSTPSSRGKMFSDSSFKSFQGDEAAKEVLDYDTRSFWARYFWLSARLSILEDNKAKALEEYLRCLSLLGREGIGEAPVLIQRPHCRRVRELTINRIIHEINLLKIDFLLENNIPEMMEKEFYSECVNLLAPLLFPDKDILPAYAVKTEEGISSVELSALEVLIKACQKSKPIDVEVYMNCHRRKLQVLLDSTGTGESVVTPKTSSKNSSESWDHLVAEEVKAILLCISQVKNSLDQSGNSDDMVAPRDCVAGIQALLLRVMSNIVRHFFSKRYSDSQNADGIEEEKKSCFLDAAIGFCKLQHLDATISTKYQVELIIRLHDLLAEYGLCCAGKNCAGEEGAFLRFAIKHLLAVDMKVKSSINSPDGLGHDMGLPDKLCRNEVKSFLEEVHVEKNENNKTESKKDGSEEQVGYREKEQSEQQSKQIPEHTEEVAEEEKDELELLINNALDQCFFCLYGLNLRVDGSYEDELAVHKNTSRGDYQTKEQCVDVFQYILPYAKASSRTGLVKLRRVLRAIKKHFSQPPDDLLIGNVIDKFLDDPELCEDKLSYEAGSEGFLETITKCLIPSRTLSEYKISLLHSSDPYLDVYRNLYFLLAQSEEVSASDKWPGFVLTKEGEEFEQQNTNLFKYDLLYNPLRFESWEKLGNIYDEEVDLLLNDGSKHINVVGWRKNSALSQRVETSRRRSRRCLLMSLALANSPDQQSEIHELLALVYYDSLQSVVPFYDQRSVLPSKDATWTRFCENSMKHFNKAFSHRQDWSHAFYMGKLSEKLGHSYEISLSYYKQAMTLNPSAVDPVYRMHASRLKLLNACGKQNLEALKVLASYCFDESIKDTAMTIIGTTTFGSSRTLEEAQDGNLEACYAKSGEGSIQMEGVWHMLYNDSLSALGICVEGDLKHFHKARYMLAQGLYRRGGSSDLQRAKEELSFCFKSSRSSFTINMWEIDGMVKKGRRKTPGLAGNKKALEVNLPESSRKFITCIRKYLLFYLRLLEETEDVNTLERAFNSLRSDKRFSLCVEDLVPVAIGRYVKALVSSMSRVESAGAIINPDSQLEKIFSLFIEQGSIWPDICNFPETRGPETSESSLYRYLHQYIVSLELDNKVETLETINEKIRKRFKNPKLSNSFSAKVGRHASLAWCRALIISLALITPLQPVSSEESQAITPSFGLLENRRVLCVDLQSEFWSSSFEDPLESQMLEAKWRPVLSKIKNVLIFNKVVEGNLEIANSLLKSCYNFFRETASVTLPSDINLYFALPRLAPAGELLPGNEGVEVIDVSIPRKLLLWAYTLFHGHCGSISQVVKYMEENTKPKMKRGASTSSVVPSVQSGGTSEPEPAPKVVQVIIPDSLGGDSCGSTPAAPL

In test [1] the target is T1, ASF1B-9xMyc-BLRP (pASF1B::ASF1B-9xMyc-BLRP complementing line) (Arabidopsis thaliana) (UniProt Q9LS09).
T1 sequence: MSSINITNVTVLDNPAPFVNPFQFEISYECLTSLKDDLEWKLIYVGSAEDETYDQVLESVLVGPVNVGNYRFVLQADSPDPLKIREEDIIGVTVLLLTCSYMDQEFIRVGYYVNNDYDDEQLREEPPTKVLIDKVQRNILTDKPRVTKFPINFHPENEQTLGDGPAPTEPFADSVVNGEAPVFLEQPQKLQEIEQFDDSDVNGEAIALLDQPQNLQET
As to the kind of experiment: affinity purification with mass spectrometry; IP-MS from about 20 g young inflorescence tissue of asf1a + ASF1A-3xFlag and asf1b + ASF1B-9Myc lines, Col-0 as negative control; anti-FLAG M2 magnetic beads or streptavidin beads; interactors: fold change >2 and FDR < 0.01.

In test [2] the target is T2, ASF1A-3xFlag-BLRP (pASF1A::ASF1A-3xFlag-BLRP complementing line) (Arabidopsis thaliana) (UniProt Q9C9M6).
T2 sequence: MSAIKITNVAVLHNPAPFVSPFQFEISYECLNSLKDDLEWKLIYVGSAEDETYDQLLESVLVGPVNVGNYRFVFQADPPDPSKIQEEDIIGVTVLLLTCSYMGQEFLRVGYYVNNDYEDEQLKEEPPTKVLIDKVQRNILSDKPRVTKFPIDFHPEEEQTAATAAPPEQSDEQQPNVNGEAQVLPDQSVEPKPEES
The test is described as above.

No constants are given. Whether binding was seen depends on the method and setting. In cells and extracts the contact can be indirect. These calls come from enrichment with a bait or labelling near it, and not all partners need be listed. A no says only that the protein was not detected with the bait. Where a sequence is shown, tags or fusion partners need not be part of it.

In the case of “AtNASP (Nuclear Autoantigenic Sperm Protein homolog), endogenous”, in test [1], the binding entry is on record as “binds”.
Still for that read-out and setting: the value for “MULTICOPY SUPPRESSOR OF IRA1 (AtMSI1), endogenous (from UniProt O22467 1-424)” was “no binding”.
In the case of “CABIN1, endogenous (from UniProt F4JV59 1-1863)”, the binding result in test [2] and in test [1] was “binds” each time.

B1: HIRA (histone regulator A), endogenous (protein, UniProt Q9LXN4 1-1024)
chain: MIAEKPFWVKHEGLQIFSIDVQPNGERFATGGGDHKVRIWNMKSVDKDLQNIDTKERLLATLRDHFGSVNCVRWAKNSRYVASGSDDQVIQIHERKPGSGTTEFGSGEAPDVENWKAVMTLRGHTADVVDLNWSPDDSMLASGSLDNTVHIWNMRTGMCTTVLRGHLSLVKGVTWDPIGSFIASQSDDKTVIIWRTSDWGMAHRTDGHWAKSLGSTFFRRLGWSPCGHFLTTTHGFQKPKHSAPVLERGEWSVAYDFLGHSAPIIVVRFNHSMFKRIPSSTHETKQVGWSNGTSKSGEKDLQSYNVIAMGSQDRTITVWTTGSARPLFVAKHFFGQSVVDLSWSPDGYSLFACSLDGTVAMIHFDPKELGVRLTDTELDELKKSRYGDVRGRQANLVESPAQLLLETASTKQAGSKRAASDVQQNQVTTKPSVSVESTAKRRKSQVDDRNKAAESTGQTLNKASTLNRVSSPVNQKVYRRPDGRKRIIPEAVGVPQQENNIMINGESHNFLPASAAAPAKGDSGDFPVEISNRDLSGKEIVCRNPDLKERSRITARATITESLVIEKVPGTSGRDGVLNVEQSVGIKESSSTDLLIRVFDWKDGEAAPPVCLEACPREHALDTVGAVSTSMVKETEISCKKSGETLWSDRIMGRVTVLAGNPNFWAAGCEDGSLQVYTKCGRRAMPTMMMGSAATFIDCDDSWKLLLVTRKGSLYVWDLFNRKCVLHDSLSSLVSSDVNLSSTVKGTIKVISVKLSKSGSPLVVLATRHAFLFDTSLMCWLRVADDCFPASNFSSSWNLGSAPCGELAGLQVDVRKYMARKPGWNRITDDGTQTRAHLESQLASSLALESPNEYRQCLLAYVRFLAREADESRLREVCESFLGPPTGMAEAASSDTNLSWDPYVLGVKKHKLLRNDILPAMASNRKVQRLLNEFIDLLSEYEDVETADPAPKGSTPTMNCGGVPSSLDQIGSDPPAMTATTPMTIDNDKPVSLENPAALDIGVCEKTGSEDRDKQDQNSRDSGS
Take B1: the binding entry in test [2] and in test [1] was “binds” throughout.

B2: ASF1B, endogenous (protein, UniProt Q9LS09 1-218)
chain: MSSINITNVTVLDNPAPFVNPFQFEISYECLTSLKDDLEWKLIYVGSAEDETYDQVLESVLVGPVNVGNYRFVLQADSPDPLKIREEDIIGVTVLLLTCSYMDQEFIRVGYYVNNDYDDEQLREEPPTKVLIDKVQRNILTDKPRVTKFPINFHPENEQTLGDGPAPTEPFADSVVNGEAPVFLEQPQKLQEIEQFDDSDVNGEAIALLDQPQNLQET
For B2, in test [2], the binding result is “no binding”.

B3: ASF1A, endogenous (protein, UniProt Q9C9M6 1-196)
chain: MSAIKITNVAVLHNPAPFVSPFQFEISYECLNSLKDDLEWKLIYVGSAEDETYDQLLESVLVGPVNVGNYRFVFQADPPDPSKIQEEDIIGVTVLLLTCSYMGQEFLRVGYYVNNDYEDEQLKEEPPTKVLIDKVQRNILSDKPRVTKFPIDFHPEEEQTAATAAPPEQSDEQQPNVNGEAQVLPDQSVEPKPEES
As to B3, the binding result in test [1] is listed as “no binding”.

B4: FASCIATA2 (FAS2), endogenous (protein, UniProt Q9SXY1 1-487)
chain: MKGGTIQISWHDGKPVLTVDFHPISGLLATAGADYDIKLWLINSGQAEKKVPSVSYQSSLTYHGCAVNTIRFSPSGELLASGADGGELFIWKLHPSETNQSWKVHKSLSFHRKDVLDLQWSPDDAYLISGSVDNSCIIWDVNKGSVHQILDAHCHYVQGVAWDPLAKYVASLSSDRTCRIYANKPQTKSKGVEKMNYVCQHVIMKADQQRGDETKTIKTHLFHDETLPSFFRRLSWSPDGSFLLIPAGSFKVSPTSEAVNATYVFSRKDLSRPALQLPGASKPVVVVRFCPVAFKLRGSSSEEGFFKLPYRLVFAIATLNSVYIYDTECVAPIAVLAGLHYAAITDITWSPNASYLALSSQDGYCTLVEFEDKELGEAVSISVGKKPVDGEEKKHDLEKGDELMTETTPDESKKQAELEQNEESKQPLPSKITTDGKEKEHIMQKTDDEVMTETRHEEENQPLQSKVNTPVSNKPARKRITPMAIDP
As for B4, the binding result in test [2] and in test [1] was “no binding” throughout.

B5: TOUSLED, endogenous (enzyme, UniProt Q39238 1-688)
chain: MSDDMVLHFSSNSSNQSDHSLPDKIAKLEARLTGKTPSSAKPPQQQQQQQQQVSLWSSASAAVKVVTSTPPGLSETSISDSDDENTGDFLIRANTKKRQKVQESNNFSVVDHVEPQEAAYDGRKNDAESKTGLDVSKKKQGRGRASSTGRGRGSKTNNDVTKSQFVVAPVSAASQLDASDQKDFRPDGQLRNGECSLQDEDLKSLRAKIAMLEEELRKSRQDSSEYHHLVRNLENEVKDLKDQEQQGKQKTTKVISDLLISVSKTERQEARTKVRNESLRLGSVGVLRTGTIIAETWEDGQMLKDLNAQLRQLLETKEAIERQRKLLKKRQNGDKNDGTDTESGAQEEDIIPDEVYKSRLTSIKREEEAVLRERERYTLEKGLLMREMKRIRDEDGSRFNHFPVLNSRYALLNLLGKGGFSEVYKAYDLVDHRYVACKLHGLNAQWSEEKKQSYIRHANRECEIHKSLVHHHIVRLWDKFHIDMHTFCTVLEYCSGKDLDAVLKATSNLPEKEARIIIVQIVQGLVYLNKKSQKIIHYDLKPGNVLFDEFGVAKVTDFGLSKIVEDNVGSQGMELTSQGAGTYWYLPPECFELNKTPMISSKVDVWSVGVLFYQMLFGKRPFGHDQSQERILREDTIIKAKKVEFPVTRPAISNEAKDLIRRCLTYNQEDRPDVLTMAQDPYLAYSKK
Regarding B5, the binding result in test [2] and in test [1] was “binds” in each case.

B6: UBN2, endogenous (protein, UniProt F4I700 1-717)
chain: MEDEPKLPTDDGPTFNESCKISSEILTAGDRKLLKVELLKEETTLVSWKKLMDEASKENGGLFVSAPERLLNANPNLEFRLAPGAQTENEMVNQPHPNRLNSVIAKIERLYMGKDGSDGEELDGAPDDDDYDTEDSFIDDAELDEYFEVDNSPIKHDGFFVNRGKLERIEPSATSNQQQPKKRRRKESAKPCGDVVDVSRKRAKMAKTAGGKDQSASPGPSSKKISNDSKTVQDSFSPLKAQNGNDSLVLENVKHTDKANHQPMNATSPKSKAAGSSGPLHPKCSSKSVHEQSNSPPGKSRPNVSAKSAVVRQQVNNGMPDLDIATESKTSIQISKKSGSNGRPKYSTLEKAIRNLEKLVAESRPPAATENQDADISSQAVKRGLPGDVKLHLAKVARIAYASQGEISGELINRLMGIVGHLIQIRSLKRNLKIMIDSIVTANREKDTRFQRIKSEITEMLKTQVPLVESQETNQEAGTSDDFQDVGSLGKSPVKKFVMDVALEEKLCDLYDVFVEGMDEHSGSQIRKLYSDLAQLWPNSLVDNHEIRRAICREKERRRALEGNIGKEMDQTKITKKKQTQLVPKSEGITYPDKTSGVEVKASVVLTATTTSLVDCQPAADSSFERSKQQHEKLKRTSSLSNPAAEGKKVRRKTEPALEETHLPAEKPLVLALKRQTHLKSKTHKQVQVHPQSKAHKQAQVHPKAKTQTPPDLNLPS
Consider B6, for which the binding entry in test [2] and in test [1] was “binds” each time.

B7: FASCIATA1 (FAS1), endogenous (protein, UniProt Q9SXY0 1-815)
chain: MDEVSTVNENENRKTMIEPKKLNKRKREPTAIENLTSEEKESQISSLNLEMKGLFDYFREVMDKSKRTDLFSGFSECSSLNSMVALLMEEMSLPLSKLVDEIYLKLKEKTESVTMVAVKSAVVSVGQRVSYGVLNVDADVLEDDSESCLWCWETRDLKIMPSSVRGVLKLRRTCRKKIHERITAVSAMLAALQREETEKLWRSDLSKAAEKLGKILSEVDIRSFMDNMMQKNSSEMAEKDSKREEKLLLKQLEKNRCEAEKEKKRMERQVLKEKLQQEKEQKLLQKAIVDENNKEKEETESRKRIKKQQDESEKEQKRREKEQAELKKQLQVQKQASIMERFLKKSKDSSLTQPKLPSSEVTAQELSCTKHENEIGKVVQAIDNAFSTTCEATVDDIRREHFASWRQLGHLLSSSKKHWGMRRQPKSELFPKLKLSTNSGVTSDGEPNMEKQGDGCEENNFDGRQCKPSSSNRKKSRRVKQLLQFDKSCRPGFYGIWPSQSQVVKPRRPLQKDPELDYEVDSDEEWEEEEAGESLSDCEKDEDESLEEGCSKADDEDDSEDDFMVPDGYLSEDEGVQVDRMDIDPSEQDANTTSSKQDQESPEFCALLQQQKHLQNLTDHALKKTQPLIICNLTHEKVSLLAAKDLEGTQKVEQICLRALMVRQFPWSSLIEISINDIQDEDQEASKFSCSQSTPPSNSKAKIIPDSDLLTVVSTIQSCSQGINRVVETLQQKFPDVPKTKLRQKVREISDFEDSRWQVKKEVLTKLGLSPSPDKGGKRLPKTISTFFSKRCLPPSTKPQPAVEDAAERLENENA
Turning to B7, in test [1], the binding result is “no binding”.

B8: UBINUCLEIN1 (UBN1), endogenous (protein, UniProt Q8RX78 1-684)
chain: MSEVNEMSGGSIGGELLRASPKVLTAGDRKLLKVELRPGDTTYVSWKKLMRDAGKVNGLSASVPDPPPNANPNLEFRIAPGHPVEIETNEQPHSNRFNAVIEKIERLYKGNDSSDGEELDGAPDDDEYDTEDSFIDDAELDEYFEVDNSTVKHDGFYVNRGKLERMEPSTTSNQQPKKRRRKDSAKPCRDAVDVSDKHTKLSITARKKDQSTAPGSWKTQESPLPSGAQDANTSVPLDDVKHSDRANHQSRNDTSHKSRETGSSSALHQKYSNKSLHQQSTSLLGKSPPNVFAEVTVVRQKENNGMHQLANVTGSRQSSQASKKDGSNVKSKTSILEKAIRELEKVVVESRPPAITENQEADTSSQAVKRRLPRDVKLKLAKVARIAQASQGKHSTELINRLMSIVGHLIQLRSLKRNLKIMIDMGDSATREKDTRFKQINNEVLDMIKAKVSLMESQAIKPEGATSDDFQDSVEKPSLKKFVMDAALEDKLCDLYDIFIDGLDEDQGPQTKKLYVNLAELWPNRLMDYRGIKHAIFRAKERRKALYGNLAKEMDQTKMKKSMKQLVPRTDCTAQPNTELVVQRQHSGEKKLIVDPNATSTSVVTSQTMVDRSNQQQPEKLKGISSSCNPTEETRVVKRKNEAVMAEKQVVLALKKPEHPQTRVIPAPQNLNIPRTTPDLNLPS
Turning to B8, the binding result in test [2] and in test [1] was “binds” in each case.
